# Patent US20070015149A1, “Prlz regulatory elements in the treatment of disease and the discovery of therapeutics” (priority 2002, published 2007)
# For at least one compound, name, drawing or mass did not settle the structure.
# System: androgen-induced PrLZ expression
# Assay: Blockade of androgen-induced PrLZ expression by AR antagonist
# Type: cell-based, human
# Conditions: LNCaP and C4-2 cells
structure (smiles),measurement,value
"CC(O)(CS(=O)(=O)c1ccc(F)cc1)C(=O)Nc1ccc(C#N)c(C(F)(F)F)c1 (stereo not shown) [Casodex, bicalutamide]",Modulation of androgen-induced PrLZ expression,block the effect of androgen on PrLZ activation in LNCaP and C4-2 cells in a dose-dependent manner
